# The list shows a part of the results.
# The chains behind the UniProt entries cited, without tags or fusion partners. Where a name states a change or a piece, a line headed by the entry shows the natural chain unless it says otherwise.
# UniProt P15927: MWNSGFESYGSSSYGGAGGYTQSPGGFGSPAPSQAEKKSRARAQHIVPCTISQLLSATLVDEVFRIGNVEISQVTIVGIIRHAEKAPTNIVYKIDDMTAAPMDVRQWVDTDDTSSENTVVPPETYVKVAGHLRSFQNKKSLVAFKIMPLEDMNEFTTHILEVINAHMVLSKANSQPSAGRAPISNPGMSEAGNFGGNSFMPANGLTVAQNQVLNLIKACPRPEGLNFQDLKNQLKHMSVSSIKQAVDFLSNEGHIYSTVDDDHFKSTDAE
# Biological target: RPA2_P15927_49_AQHIVPCTISQLLSATLVDEVFR (UniProt P15927)
# Assay: probe-labelled cysteine peptide fold change vs DMSO (competition) (log2 fold change); higher = less target engagement (more negative = stronger competition)
# Settings: THP-1, incubation time: 4 h
# 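Also: competitive chemoproteomic profiling in live THP-1 cells with an iodoacetamide desthiobiotin (IA-DTB) probe, comparing probe-labelled peptide intensities in compound-treated cells against DMSO-treated controls.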
smiles,measurement,setting,value
CC1Cc2ccccc2N1C(=O)C1CCCN(C(=O)CCl)C1 (mixture of isomers) [TRIM25 ligand 11 (diastereomer mixture)],probe-labelled cysteine peptide fold change,10 µM,0.0873
same,probe-labelled cysteine peptide fold change,50 µM,0.218

# — the supplement of paper PMC12067093, “Discovery and optimisation of a covalent ligand for TRIM25 and its application to targeted protein ubiquitination” (Chemical Science, 2025)
